Source: the supplement of paper PMC10849652
The other results are listed elsewhere or left out.

Sequences of proteins named here, by UniProt entry; tags and fusion partners are left off. A change or cut given only in a name is not applied to a line headed by its entry.
UniProt P56945: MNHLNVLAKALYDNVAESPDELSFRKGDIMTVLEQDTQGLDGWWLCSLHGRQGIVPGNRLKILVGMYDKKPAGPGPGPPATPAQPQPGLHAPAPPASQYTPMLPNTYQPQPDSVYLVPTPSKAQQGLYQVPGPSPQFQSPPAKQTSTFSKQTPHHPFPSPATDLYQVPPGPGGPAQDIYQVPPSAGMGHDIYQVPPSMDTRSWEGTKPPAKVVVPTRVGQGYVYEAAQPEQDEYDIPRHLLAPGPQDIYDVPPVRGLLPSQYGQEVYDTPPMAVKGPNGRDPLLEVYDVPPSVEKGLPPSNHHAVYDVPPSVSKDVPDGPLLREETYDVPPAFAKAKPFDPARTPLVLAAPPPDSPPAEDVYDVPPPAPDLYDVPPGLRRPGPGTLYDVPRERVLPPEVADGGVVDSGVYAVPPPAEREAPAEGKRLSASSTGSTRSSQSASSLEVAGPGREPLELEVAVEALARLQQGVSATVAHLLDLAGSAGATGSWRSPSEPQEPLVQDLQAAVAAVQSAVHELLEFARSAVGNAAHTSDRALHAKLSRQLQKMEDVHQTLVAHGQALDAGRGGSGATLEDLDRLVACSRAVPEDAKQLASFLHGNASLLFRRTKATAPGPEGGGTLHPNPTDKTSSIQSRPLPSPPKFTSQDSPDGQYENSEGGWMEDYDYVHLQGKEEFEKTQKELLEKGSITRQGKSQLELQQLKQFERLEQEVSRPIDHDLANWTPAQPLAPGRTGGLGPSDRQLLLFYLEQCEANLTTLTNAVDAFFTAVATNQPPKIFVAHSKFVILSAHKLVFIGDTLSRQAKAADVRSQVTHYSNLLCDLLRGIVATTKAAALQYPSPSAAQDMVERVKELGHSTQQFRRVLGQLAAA
UniProt P38398, whole entry, looked up: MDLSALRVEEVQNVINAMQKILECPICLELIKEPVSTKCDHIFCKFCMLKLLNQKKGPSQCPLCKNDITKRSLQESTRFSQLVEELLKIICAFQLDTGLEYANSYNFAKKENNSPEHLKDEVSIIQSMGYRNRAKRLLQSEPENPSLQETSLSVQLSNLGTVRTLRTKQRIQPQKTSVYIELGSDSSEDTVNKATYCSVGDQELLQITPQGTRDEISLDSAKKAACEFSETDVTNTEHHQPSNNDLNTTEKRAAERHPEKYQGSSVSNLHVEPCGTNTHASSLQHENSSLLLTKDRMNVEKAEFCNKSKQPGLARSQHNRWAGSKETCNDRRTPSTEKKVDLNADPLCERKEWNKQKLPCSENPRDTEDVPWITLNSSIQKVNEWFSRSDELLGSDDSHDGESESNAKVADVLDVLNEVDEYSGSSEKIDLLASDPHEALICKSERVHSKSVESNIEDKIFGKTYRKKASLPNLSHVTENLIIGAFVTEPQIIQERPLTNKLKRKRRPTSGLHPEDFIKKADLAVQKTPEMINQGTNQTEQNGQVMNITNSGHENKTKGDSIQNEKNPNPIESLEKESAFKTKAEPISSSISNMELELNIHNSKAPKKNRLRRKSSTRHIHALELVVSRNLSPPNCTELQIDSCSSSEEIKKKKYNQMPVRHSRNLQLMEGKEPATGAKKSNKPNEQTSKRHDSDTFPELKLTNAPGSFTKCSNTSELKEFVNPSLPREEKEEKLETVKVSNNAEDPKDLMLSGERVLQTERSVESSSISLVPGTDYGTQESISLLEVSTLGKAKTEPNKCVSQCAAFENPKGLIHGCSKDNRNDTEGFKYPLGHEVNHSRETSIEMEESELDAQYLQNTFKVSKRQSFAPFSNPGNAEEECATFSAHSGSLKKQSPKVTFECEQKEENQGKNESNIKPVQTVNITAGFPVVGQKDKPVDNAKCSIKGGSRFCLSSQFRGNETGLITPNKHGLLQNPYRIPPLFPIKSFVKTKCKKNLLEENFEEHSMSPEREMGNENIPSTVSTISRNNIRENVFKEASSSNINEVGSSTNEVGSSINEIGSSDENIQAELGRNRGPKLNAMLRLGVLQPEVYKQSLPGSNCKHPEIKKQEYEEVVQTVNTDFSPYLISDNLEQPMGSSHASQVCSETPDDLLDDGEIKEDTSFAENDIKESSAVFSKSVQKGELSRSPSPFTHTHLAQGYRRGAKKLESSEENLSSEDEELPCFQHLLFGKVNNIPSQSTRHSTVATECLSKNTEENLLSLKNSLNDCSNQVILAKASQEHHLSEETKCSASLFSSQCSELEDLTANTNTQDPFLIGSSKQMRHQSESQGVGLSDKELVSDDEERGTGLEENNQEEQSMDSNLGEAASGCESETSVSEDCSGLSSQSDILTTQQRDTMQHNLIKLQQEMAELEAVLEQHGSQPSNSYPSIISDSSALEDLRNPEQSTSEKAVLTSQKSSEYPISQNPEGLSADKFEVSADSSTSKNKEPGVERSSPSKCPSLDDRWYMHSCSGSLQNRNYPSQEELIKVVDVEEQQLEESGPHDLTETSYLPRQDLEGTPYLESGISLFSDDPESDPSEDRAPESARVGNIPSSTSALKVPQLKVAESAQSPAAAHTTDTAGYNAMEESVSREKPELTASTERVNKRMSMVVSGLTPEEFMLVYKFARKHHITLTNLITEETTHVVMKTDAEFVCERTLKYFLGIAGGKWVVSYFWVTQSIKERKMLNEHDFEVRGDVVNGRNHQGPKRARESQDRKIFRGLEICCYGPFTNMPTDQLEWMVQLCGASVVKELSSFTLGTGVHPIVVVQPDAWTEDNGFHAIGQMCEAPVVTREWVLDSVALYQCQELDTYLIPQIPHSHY
UniProt Q8NCR0: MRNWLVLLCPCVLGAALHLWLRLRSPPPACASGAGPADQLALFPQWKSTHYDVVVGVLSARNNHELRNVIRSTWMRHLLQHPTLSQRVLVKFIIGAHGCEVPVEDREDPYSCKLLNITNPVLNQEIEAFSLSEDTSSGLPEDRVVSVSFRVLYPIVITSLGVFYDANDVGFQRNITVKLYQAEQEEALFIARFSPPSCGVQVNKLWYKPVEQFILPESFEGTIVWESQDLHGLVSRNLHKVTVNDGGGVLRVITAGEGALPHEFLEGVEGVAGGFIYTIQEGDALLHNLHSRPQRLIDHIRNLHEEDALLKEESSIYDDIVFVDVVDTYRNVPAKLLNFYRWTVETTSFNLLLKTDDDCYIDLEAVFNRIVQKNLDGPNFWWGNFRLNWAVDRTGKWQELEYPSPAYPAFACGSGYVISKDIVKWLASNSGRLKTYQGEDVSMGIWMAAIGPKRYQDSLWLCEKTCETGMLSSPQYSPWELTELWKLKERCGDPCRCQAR
UniProt O94766: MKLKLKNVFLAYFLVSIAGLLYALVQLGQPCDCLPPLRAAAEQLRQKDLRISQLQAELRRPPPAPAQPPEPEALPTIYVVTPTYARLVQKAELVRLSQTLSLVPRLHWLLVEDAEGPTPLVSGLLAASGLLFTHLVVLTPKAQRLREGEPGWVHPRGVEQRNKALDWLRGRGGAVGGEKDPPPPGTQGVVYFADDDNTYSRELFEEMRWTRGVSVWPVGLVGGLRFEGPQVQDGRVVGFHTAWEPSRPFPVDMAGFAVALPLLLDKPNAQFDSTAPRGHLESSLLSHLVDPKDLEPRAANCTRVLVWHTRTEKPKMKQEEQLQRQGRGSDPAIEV
UniProt Q96B45: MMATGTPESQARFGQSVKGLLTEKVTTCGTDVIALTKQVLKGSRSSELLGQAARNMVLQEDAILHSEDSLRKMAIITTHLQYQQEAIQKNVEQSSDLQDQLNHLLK
UniProt Q86UU0: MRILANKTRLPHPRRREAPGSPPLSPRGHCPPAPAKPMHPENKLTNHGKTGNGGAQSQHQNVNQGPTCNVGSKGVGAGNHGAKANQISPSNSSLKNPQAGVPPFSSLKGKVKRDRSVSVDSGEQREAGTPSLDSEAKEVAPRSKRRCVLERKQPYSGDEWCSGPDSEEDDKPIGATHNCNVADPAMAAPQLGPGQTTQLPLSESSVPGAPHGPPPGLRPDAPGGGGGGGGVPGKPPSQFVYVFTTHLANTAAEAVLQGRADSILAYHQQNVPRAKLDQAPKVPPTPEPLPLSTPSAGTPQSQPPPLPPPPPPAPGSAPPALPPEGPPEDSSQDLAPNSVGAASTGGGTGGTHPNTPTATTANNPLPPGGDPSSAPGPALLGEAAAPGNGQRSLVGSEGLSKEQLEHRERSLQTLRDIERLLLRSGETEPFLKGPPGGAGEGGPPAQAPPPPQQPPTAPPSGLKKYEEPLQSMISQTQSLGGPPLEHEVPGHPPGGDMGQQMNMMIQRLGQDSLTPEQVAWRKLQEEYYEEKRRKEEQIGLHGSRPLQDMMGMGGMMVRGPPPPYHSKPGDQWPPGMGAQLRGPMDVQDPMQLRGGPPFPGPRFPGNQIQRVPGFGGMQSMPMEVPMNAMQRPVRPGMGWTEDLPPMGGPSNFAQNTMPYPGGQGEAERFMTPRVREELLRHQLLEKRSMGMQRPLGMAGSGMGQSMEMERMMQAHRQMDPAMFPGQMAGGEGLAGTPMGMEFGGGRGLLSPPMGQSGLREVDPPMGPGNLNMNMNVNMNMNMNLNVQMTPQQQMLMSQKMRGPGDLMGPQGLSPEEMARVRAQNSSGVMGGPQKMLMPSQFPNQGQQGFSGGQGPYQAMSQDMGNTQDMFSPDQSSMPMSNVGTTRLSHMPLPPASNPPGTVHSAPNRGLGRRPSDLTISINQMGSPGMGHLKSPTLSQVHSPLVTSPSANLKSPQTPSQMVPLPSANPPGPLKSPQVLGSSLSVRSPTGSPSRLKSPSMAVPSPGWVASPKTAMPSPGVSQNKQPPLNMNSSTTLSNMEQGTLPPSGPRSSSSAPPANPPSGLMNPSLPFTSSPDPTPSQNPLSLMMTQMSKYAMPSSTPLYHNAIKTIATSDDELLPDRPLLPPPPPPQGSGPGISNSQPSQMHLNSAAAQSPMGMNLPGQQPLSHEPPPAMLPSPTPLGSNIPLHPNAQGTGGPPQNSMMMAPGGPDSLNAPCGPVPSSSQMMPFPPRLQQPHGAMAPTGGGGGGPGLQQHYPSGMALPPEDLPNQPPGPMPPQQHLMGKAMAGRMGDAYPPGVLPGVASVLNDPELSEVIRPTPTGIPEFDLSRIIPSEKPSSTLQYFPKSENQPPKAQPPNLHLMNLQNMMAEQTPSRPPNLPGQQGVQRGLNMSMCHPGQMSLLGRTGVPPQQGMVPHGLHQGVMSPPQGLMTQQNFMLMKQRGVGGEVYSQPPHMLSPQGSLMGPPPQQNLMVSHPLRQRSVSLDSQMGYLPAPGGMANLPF
UniProt Q9BX63: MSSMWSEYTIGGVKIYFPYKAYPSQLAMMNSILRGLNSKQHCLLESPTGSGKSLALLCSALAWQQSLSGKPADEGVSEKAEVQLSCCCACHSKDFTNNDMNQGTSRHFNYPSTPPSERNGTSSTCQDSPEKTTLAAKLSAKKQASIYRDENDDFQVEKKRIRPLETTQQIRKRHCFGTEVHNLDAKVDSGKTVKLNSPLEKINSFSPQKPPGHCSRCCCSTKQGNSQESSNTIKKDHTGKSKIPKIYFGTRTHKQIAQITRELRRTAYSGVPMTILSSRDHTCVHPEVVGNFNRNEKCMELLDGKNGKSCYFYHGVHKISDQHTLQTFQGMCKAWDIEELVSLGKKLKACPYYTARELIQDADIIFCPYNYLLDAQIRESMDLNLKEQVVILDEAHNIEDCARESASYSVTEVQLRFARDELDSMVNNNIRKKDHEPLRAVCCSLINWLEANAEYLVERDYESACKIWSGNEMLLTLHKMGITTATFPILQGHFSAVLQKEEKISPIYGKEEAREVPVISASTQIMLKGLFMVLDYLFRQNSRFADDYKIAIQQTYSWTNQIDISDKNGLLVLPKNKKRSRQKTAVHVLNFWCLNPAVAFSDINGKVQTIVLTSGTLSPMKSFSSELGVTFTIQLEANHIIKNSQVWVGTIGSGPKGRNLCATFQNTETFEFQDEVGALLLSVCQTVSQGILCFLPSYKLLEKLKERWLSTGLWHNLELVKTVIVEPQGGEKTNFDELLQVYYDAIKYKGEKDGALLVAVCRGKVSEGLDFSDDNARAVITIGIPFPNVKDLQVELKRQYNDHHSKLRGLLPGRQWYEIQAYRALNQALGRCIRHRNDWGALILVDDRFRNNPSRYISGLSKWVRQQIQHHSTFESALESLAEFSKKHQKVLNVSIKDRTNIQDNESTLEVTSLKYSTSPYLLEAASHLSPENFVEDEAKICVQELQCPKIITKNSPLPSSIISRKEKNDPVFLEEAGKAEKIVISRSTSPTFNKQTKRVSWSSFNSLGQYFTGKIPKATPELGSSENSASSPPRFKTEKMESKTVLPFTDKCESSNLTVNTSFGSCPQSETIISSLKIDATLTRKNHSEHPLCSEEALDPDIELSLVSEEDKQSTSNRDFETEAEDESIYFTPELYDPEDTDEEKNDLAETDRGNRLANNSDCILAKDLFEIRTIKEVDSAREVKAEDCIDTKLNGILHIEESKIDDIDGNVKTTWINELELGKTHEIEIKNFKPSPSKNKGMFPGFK
UniProt O15392, whole entry, looked up: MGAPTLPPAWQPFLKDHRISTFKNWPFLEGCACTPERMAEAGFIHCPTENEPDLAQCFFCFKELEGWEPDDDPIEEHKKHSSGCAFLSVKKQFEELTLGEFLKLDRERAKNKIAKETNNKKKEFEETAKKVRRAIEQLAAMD

Experiments:
Assay in all cases: log2 fold change, soluble protein after heating vs DMSO (PISA); higher = thermal stabilisation; K562 cells, 10 uM, 30 min; active = over 0.2 and 3.5 SD of the protein, either way, in both replicates (recomputed)
[1] = compound: COC1=CC=C(C=C1)CN2C=CC3=C2C=C(C=C3)C(=O)NO
Procedure, shortened: (§1)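 K562 cells at 2×10^6 cells/mL were treated for 30 min with 10 μM compound, and aliquots were heated for 3 min over 48°C-58°C before pooling. Extraction used PBS with 0.5% NP-40 at 4°C, and soluble protein was the supernatant after 21,000xg for 90 min, measured by TMTpro 16plex LC-MS/MS with channel sums equalised. Thermal stability values, relative to control samples and from duplicates, are log2 fold changes.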

[2] = compound: CON(C)C(=O)N1N=C(c2cc(F)ccc2F)S[C@@]1(CCCN)c1ccccc1 [filanesib]
Procedure, shortened: as §1

[3] = compound: CO[C@H]1C[C@@H]2CC[C@@H](C)[C@@](O)(O2)C(=O)C(=O)N2CCCC[C@H]2C(=O)O[C@H]([C@H](C)C[C@@H]2CC[C@H](n3cnnn3)[C@H](OC)C2)CC(=O)[C@H](C)/C=C(\C)[C@@H](O)[C@@H](OC)C(=O)[C@H](C)C[C@H](C)/C=C/C=C/C=C/1C [zotarolimus]
Procedure, shortened: as §1

[4] = compound: COc1cc(C(=O)O)ccc1NC(=O)[C@@H]1N[C@@H](CC(C)(C)C)[C@](C#N)(c2ccc(Cl)cc2F)[C@H]1c1cccc(Cl)c1F [idasanutlin]
Procedure, shortened: as §1

[5] = compound: COc1cc(Nc2ncc3c(n2)-c2ccc(Cl)cc2C(c2c(F)cccc2OC)=NC3)ccc1C(=O)O [alisertib]
Procedure, shortened: as §1

[6] = compound: COc1cc2nc(-c3cc(F)ccc3O)nc(N[C@@H]3CNC[C@H]3C(C)(C)O)c2cc1OC
Procedure, shortened: as §1

[7] = compound: COc1cc2ncnc(Nc3ccc(F)c(Cl)c3)c2cc1OCCCN1CCOCC1 [gefitinib]
Procedure, shortened: as §1

[8] = compound: COc1cccc2cc(-c3nc([C@H]4CC[C@H](C(=O)O)CC4)n4ncnc(N)c34)[nH]c12
Procedure, shortened: as §1

[9] = compound: CS(=O)(=O)CCNCc1ccc(-c2ccc3ncnc(Nc4ccc(OCc5cccc(F)c5)c(Cl)c4)c3c2)o1 [lapatinib]
Procedure, shortened: as §1

[10] = compound: CS(=O)(=O)N1CCN(Cc2cc3nc(-c4cccc5[nH]ncc45)nc(N4CCOCC4)c3s2)CC1 [pictilisib]
Procedure, shortened: as §1

Measured: log2 fold change

BANF1 (UniProt O75531)
inactive: [1] -0.094 | [2] 0.044 | [3] 0.021 | [4] -0.039 | [5] 0.022 | [6] -0.079 | [7] 0.007 | [8] 0.031 | [9] -0.162 | [10] 0.137

BCAR1 isoform 6 (UniProt P56945)
inactive: [1] -0.072 | [2] -0.054 | [3] -0.04 | [4] 0.246 | [6] -0.153 | [9] -0.009 | [10] -0.039

BDH2 (UniProt Q9BUT1)
inactive: [1] 0.022 | [2] -0.007 | [3] 0.098 | [4] -0.039 | [5] 0.071 | [6] 0.065 | [8] -0.001 | [9] 0.012 | [10] 0.007

ATXN7L3B (UniProt Q96GX2)
inactive: [1] -0.052 | [2] 0.128 | [3] 0.048 | [4] -0.04 | [5] -0.058 | [6] 0.036 | [7] 0.043 | [8] 0.008 | [9] -0.042 | [10] 0.004

B3GNT5 (UniProt Q9BYG0)
inactive: [1] -0.028 | [2] -0.014 | [3] 0.016 | [5] -0.016 | [7] -0.006 | [8] 0.069

BPGM (UniProt P07738)
inactive: [1] -0.014 | [2] 0.044 | [3] -0.029 | [4] -0.037 | [5] -0.048 | [6] 0.028 | [7] 0.036 | [8] 0.037 | [9] -0.033 | [10] -0.015

BCAS3 isoform 8 (UniProt Q9H6U6)
inactive: [1] -0.051 | [3] 0.144 | [4] -0.006 | [6] 0.089 | [9] -0.039 | [10] -0.014

BCLAF1 (UniProt Q9NYF8)
inactive: [1] -0.107 | [2] 0.103 | [3] 0.068 | [4] 0.127 | [5] 0.074 | [6] -0.215 | [7] 0.01 | [8] 0.033 | [9] 0.101 | [10] -0.109

BAG2 (UniProt O95816)
inactive: [1] -0.071 | [2] 0.24 | [3] 0.05 | [4] 0.046 | [5] -0.201 | [6] -0.081 | [7] -0.022 | [8] -0.195 | [9] 0.12 | [10] -0.045

Quoted from above (5 entries):
B3GNT5 (UniProt Q9BYG0)
inactive: [1] -0.028 | [2] -0.014 | [3] 0.016 | [5] -0.016 | [7] -0.006 | [8] 0.069

BPGM (UniProt P07738)
inactive: [1] -0.014 | [2] 0.044 | [3] -0.029 | [4] -0.037 | [5] -0.048 | [6] 0.028 | [7] 0.036 | [8] 0.037 | [9] -0.033 | [10] -0.015

BCAS3 isoform 8 (UniProt Q9H6U6)
inactive: [1] -0.051 | [3] 0.144 | [4] -0.006 | [6] 0.089 | [9] -0.039 | [10] -0.014

BCLAF1 (UniProt Q9NYF8)
inactive: [1] -0.107 | [2] 0.103 | [3] 0.068 | [4] 0.127 | [5] 0.074 | [6] -0.215 | [7] 0.01 | [8] 0.033 | [9] 0.101 | [10] -0.109

BAG2 (UniProt O95816)
inactive: [1] -0.071 | [2] 0.24 | [3] 0.05 | [4] 0.046 | [5] -0.201 | [6] -0.081 | [7] -0.022 | [8] -0.195 | [9] 0.12 | [10] -0.045

Continuation:

BRCA1 isoform 7 (UniProt P38398)
inactive: [1] -0.382 | [2] 0.102 | [5] -0.088 | [6] 0.218 | [8] -0.15 | [9] 0.012

B3GALNT2 (UniProt Q8NCR0)
inactive: [1] 0.018 | [2] 0.003 | [5] 0.075 | [6] 0.244 | [8] 0.046 | [9] -0.093 | [10] -0.045

B4GALT7 (UniProt Q9UBV7)
inactive: [1] 0.109 | [2] 0.016 | [3] -0.033 | [4] -0.06 | [5] -0.11 | [6] 0.035 | [8] 0.076 | [9] 0.04 | [10] 0.124

BAZ1B (UniProt Q9UIG0)
inactive: [1] 0.054 | [2] 0.269 | [3] -0.172 | [5] 0.082 | [7] 0.008 | [8] -0.161 | [10] -0.291

BPTF (UniProt Q12830)
inactive: [1] -0.112 | [2] -0.01 | [7] -0.178

BCL10 (UniProt O95999)
inactive: [1] -0.127 | [2] -0.013 | [3] -0.047 | [4] 0.023 | [5] -0.062 | [6] 0.039 | [7] -0.028 | [8] -0.002 | [9] -0.058 | [10] -0.036

AUH (UniProt Q13825)
inactive: [1] -0.107 | [3] 0.009 | [4] -0.074 | [5] 0.175 | [6] -0.036 | [8] 0.034 | [9] 0.056 | [10] -0.071

B4GAT1 (UniProt O43505)
inactive: [1] -0.021 | [3] -0.092 | [4] -0.157 | [6] 0.055 | [7] -0.001 | [9] 0.001 | [10] 0.068

B3GAT3 (UniProt O94766)
inactive: [1] 0.074 | [2] 0.03 | [3] 0.023 | [4] -0.069 | [5] -0.087 | [6] 0.003 | [7] 0.014 | [8] -0.016 | [9] 0.009 | [10] -0.01

BAP1 (UniProt Q92560)
inactive: [1] 0.032 | [2] 0.111 | [3] 0.046 | [4] 0.164 | [5] -0.112 | [6] -0.006 | [7] -0.055 | [8] -0.024 | [9] 0.119 | [10] 0.062

BORCS7 (UniProt Q96B45)
inactive: [1] 0.068 | [3] 0.116 | [4] -0.028 | [5] -0.053 | [6] 0.008 | [7] 0.067 | [8] 0.03 | [9] 0 | [10] 0.132

BAIAP2L1 (UniProt Q9UHR4)
inactive: [1] -0.043 | [2] -0.019 | [3] -0.017 | [4] -0.003 | [5] 0.007 | [6] 0.013 | [7] 0.014 | [8] 0.021 | [9] 0.004 | [10] 0.025

BRD2 isoform 2 (UniProt P25440)
inactive: [1] -0.174 | [2] -0.11 | [3] -0.361 | [4] 0.072 | [6] 0.214 | [9] 0.005 | [10] 0.016

BNIP3L (UniProt O60238)
inactive: [1] -0.317 | [3] -0.012 | [5] -0.099 | [7] 0.157 | [8] 0.102

BCL9L (UniProt Q86UU0)
inactive: [1] -0.048 | [2] 0.017 | [3] -0.043 | [4] 0.028 | [5] 0.014 | [6] 0.02 | [7] 0.034 | [8] -0.067 | [9] 0.011 | [10] -0.007

BAD (UniProt Q92934)
inactive: [1] -0.103 | [2] 0.124 | [3] -0.073 | [4] -0.049 | [5] 0.103 | [6] -0.016 | [7] 0.115 | [8] 0.068 | [9] -0.037 | [10] 0.022

BRIP1 (UniProt Q9BX63)
inactive: [1] 0.072 | [2] 0.098 | [3] 0.061 | [4] -0.14 | [6] 0.126 | [7] 0.047 | [9] 0.003 | [10] 0.067

BLVRA (UniProt C9J1E1)
inactive: [1] -0.535 | [3] -0.02 | [4] 0.035 | [5] 0.846 | [6] 0.271 | [7] -0.058 | [8] 0.237 | [9] -0.357 | [10] 0.165

BBC3 (UniProt Q9BXH1)
inactive: [1] -0.057 | [3] 0.03 | [4] 0.016 | [5] -0.015 | [6] -0.066 | [7] -0.012 | [8] 0.118 | [9] 0.011 | [10] 0.046

ATXN3 isoform 1 (UniProt P54252)
inactive: [1] 0.023 | [3] -0.051 | [4] -0.114 | [5] -0.004 | [6] 0.106 | [7] -0.192 | [8] 0.297 | [9] -0.031 | [10] -0.036

BIRC5 (UniProt O15392)
inactive: [1] -0.07 | [2] 0.031 | [3] -0.052 | [4] 0.314 | [6] -0.165 | [7] -0.144 | [9] -0.08
